Test results from PMC12562877.
These are yes or no findings as the source states them, for the method shown. In cells and extracts the contact can be indirect. Some results given as binding are weak or reduced against the parent protein; the word gives no strength. Blank lines part the entries; values can stand above or below the substance they belong to.

The chains behind the UniProt entries cited, without tags or fusion partners. Residues count along the entry.
UniProt Q9NZQ7, residues 19-290: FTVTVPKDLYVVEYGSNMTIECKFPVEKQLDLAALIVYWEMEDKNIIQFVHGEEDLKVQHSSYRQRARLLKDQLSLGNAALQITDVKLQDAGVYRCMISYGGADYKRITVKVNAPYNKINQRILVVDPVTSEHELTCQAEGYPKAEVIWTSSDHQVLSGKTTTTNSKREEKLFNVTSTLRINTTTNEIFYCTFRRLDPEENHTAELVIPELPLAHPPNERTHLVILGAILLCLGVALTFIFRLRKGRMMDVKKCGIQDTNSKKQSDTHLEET
UniProt Q05397: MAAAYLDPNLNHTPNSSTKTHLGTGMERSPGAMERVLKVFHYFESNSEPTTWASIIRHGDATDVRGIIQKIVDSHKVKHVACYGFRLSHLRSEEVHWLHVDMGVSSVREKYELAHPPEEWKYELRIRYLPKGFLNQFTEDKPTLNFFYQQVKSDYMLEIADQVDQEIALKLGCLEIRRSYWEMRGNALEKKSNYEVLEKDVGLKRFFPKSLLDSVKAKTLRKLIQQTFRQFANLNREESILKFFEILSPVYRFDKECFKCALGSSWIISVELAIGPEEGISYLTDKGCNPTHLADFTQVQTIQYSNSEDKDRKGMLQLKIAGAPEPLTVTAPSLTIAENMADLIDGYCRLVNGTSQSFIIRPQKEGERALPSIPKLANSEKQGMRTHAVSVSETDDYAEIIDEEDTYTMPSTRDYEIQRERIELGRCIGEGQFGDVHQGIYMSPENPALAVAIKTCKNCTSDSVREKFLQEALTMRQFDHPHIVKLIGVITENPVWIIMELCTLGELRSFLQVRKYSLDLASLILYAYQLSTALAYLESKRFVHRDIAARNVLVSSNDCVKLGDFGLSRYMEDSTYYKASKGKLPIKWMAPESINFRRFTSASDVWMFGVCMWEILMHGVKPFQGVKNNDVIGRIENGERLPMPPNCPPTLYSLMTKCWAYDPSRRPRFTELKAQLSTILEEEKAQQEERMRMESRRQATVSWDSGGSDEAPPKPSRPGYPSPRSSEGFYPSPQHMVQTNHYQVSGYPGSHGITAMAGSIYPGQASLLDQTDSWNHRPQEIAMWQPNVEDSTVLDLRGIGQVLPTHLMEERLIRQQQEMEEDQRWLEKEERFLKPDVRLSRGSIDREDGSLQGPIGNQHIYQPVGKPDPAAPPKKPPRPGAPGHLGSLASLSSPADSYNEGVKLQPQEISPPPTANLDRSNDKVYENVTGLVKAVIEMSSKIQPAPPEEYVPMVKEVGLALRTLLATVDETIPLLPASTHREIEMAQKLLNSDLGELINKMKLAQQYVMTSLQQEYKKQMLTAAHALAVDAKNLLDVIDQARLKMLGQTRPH

Experiments:
[1] = molecular target: PD-L1-NanoLuc fusion (PD-L1-NL) (UniProt Q9NZQ7); experiment: co-IP; HEK293A-PD-L1-NL stable cells transfected with MYC-tagged FAK; 1% NP-40 lysis buffer; IP with anti-MYC (blot anti-PD-L1) or anti-PD-L1 (blot anti-FAK), IgG as control
[2] = molecular target: FLAG-tagged PD-L1 (SFB-tagged PD-L1) (UniProt Q9NZQ7); experiment: co-IP; HEK293A cells transfected with MYC-tagged FAK and SFB/FLAG-tagged PD-L1, alone or together; 1% NP-40 lysis buffer; IP with anti-FLAG (blot anti-MYC) or anti-MYC (blot anti-FLAG)
[3] = molecular target: MYC-tagged FAK (focal adhesion kinase) (UniProt Q05397); experiment: co-IP; HEK293A-PD-L1-NL stable cells transfected with MYC-tagged FAK; 1% NP-40 lysis buffer; IP with anti-MYC (blot anti-PD-L1) or anti-PD-L1 (blot anti-FAK), IgG as control
[4] = molecular target: programmed death-ligand 1 (PD-L1), endogenous in BT-549 cells (human (endogenous in BT-549)) (UniProt Q9NZQ7); experiment: co-IP; endogenous proteins; about 1 mg BT-549 lysate; IP with 2 ug IgG (control) or rabbit monoclonal anti-PD-L1; blot with mouse monoclonal anti-FAK
[5] = molecular target: focal adhesion kinase (FAK), endogenous in BT-549 cells (human (endogenous in BT-549)) (UniProt Q05397); experiment: proximity ligation; Duolink PLA in fixed, permeabilized BT-549 cells; anti-PD-L1 (rabbit) plus anti-FAK (mouse); anti-FAK alone as negative control

binding [1]: binds | binding [2]: binds
Substance: MYC-tagged FAK (focal adhesion kinase) (from UniProt Q05397 1-1052) (enzyme)

binding [3]: binds
Substance: PD-L1-NanoLuc fusion (PD-L1-NL) (from UniProt Q9NZQ7 19-290) (ligand)

Substance: focal adhesion kinase (FAK), endogenous in BT-549 cells (from UniProt Q05397 1-1052) (enzyme)
binding [4]: binds

Substance: programmed death-ligand 1 (PD-L1), endogenous in BT-549 cells (from UniProt Q9NZQ7 19-290)
binding [5]: binds
